Results are given in words; binding and its absence hold for the method and conditions named. Sequences can lack the tags named with a protein.
Biological target: NifB from Chlorobium tepidum (NifBCt), His9-tagged (Chlorobium tepidum) (UniProt Q8KC85)
Test: SEC; anaerobic; HiLoad 16/600 Superdex 200; 50 μM Na2HPO4 pH 7.6, 180 μM NaCl, 10% glycerol, 5 μM 2-mercaptoethanol, 2 μM Na2S2O4 (units as printed); 1 ml/min; calibrated with aldolase, conalbumin, ovalbumin, carbonic anhydrase; both purified

binding: no binding
B1: NifB from Chlorobium tepidum (NifBCt), His9-tagged (enzyme, UniProt Q8KC85 1-424)
chain: MTLNIKNHPCFNDSSRHTYGRIHLPVAPKCNIQCNYCNRKFDCMNENRPGITSKVLSPRQALYYLDNALKLSPNISVVGIAGPGDPFANPEETMETLRLVREKYPEMLLCVATNGLDMLPYIEELAELQVSHVTLTINAIDPEIGQEIYAWVRYQKKMYRDRQAAELLLENQLAALQKLKRYGVTAKVNSIIIPGVNDQHVIEVARQVASMGADILNALPYYNTTETVFENIPEPDPMMVRKIQEEAGKLLPQMKHCARCRADAVGIIGEINSDEMMAKLAEAALMPKNPDEHRPYIAVASLEGVLINQHLGEADRFLVYALDEEKKSCTLVDSRQAPPPGGGKLRWEALAAKLSDCRAVLVNSAGDSPQSVLKASGIDVMSIEGVIEEAVYGVFTGQNLKHLMKSSQIHACKTSCGGDGNGCD

Reference: publication PMC5715403
